In the supplement of paper PMC10849652:
This is one part of the list.

Amino acid sequences for entries named in this document (tags omitted). A change or cut given only in a name is not applied to a line headed by its entry.
UniProt Q9BT30: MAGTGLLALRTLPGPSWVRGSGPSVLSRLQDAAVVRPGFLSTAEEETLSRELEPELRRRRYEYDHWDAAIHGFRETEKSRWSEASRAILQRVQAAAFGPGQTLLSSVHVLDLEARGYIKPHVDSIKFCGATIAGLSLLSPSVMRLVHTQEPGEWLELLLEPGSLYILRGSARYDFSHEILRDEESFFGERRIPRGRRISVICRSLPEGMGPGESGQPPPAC
UniProt P56377: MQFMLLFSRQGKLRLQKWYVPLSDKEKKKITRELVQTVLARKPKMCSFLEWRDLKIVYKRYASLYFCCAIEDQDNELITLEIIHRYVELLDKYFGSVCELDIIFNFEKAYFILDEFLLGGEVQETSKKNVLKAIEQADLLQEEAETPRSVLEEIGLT
UniProt Q68DC2: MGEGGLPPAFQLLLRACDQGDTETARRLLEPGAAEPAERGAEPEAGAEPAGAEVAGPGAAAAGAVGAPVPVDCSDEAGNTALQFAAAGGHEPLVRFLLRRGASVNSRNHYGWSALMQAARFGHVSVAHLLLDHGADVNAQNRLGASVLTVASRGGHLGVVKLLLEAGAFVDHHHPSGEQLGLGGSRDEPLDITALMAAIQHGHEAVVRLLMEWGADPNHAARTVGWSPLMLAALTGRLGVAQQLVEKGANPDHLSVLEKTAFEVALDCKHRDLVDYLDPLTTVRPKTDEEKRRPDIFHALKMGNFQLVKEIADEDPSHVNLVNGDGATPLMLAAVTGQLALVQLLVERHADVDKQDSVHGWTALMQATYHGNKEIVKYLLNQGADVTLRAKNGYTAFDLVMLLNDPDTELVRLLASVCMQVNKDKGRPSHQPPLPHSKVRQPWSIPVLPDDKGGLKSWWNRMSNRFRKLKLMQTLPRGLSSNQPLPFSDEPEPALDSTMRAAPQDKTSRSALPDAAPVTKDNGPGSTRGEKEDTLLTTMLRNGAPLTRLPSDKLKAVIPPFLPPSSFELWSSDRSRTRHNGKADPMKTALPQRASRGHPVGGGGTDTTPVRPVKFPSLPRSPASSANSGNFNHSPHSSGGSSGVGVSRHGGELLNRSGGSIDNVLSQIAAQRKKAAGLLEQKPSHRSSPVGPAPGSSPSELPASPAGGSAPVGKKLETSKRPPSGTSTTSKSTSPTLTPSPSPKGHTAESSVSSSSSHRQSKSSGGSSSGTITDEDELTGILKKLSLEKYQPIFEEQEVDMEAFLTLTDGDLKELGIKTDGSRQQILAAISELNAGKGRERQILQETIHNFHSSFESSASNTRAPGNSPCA
UniProt Q9UKV5, whole entry, looked up: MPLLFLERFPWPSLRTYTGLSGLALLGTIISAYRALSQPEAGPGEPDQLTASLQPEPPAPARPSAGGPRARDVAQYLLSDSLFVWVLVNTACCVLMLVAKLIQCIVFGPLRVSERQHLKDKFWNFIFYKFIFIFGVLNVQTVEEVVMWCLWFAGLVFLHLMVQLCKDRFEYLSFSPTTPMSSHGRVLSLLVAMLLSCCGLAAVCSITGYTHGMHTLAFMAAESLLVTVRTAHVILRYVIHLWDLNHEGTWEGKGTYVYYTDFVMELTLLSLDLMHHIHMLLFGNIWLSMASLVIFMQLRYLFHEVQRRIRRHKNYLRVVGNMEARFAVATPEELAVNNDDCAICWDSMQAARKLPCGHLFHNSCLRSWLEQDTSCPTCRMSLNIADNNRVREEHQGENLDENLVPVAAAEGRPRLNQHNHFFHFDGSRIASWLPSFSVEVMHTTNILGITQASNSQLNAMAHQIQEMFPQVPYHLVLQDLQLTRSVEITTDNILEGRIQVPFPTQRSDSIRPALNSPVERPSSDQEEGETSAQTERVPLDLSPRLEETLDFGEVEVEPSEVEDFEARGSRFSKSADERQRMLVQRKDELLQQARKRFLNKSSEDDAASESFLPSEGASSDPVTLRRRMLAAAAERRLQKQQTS
UniProt O00189: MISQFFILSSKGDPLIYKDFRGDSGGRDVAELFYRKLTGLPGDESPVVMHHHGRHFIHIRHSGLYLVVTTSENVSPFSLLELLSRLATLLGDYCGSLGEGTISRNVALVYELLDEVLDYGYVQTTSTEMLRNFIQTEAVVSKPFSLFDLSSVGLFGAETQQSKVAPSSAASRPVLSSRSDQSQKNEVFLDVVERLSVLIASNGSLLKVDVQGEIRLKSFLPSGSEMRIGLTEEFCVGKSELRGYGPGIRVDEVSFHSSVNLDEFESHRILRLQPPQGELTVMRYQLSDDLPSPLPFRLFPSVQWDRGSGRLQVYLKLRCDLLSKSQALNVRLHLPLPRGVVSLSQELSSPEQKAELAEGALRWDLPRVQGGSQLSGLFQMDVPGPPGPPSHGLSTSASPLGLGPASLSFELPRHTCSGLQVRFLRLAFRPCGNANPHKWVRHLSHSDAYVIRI
UniProt Q8IWZ3: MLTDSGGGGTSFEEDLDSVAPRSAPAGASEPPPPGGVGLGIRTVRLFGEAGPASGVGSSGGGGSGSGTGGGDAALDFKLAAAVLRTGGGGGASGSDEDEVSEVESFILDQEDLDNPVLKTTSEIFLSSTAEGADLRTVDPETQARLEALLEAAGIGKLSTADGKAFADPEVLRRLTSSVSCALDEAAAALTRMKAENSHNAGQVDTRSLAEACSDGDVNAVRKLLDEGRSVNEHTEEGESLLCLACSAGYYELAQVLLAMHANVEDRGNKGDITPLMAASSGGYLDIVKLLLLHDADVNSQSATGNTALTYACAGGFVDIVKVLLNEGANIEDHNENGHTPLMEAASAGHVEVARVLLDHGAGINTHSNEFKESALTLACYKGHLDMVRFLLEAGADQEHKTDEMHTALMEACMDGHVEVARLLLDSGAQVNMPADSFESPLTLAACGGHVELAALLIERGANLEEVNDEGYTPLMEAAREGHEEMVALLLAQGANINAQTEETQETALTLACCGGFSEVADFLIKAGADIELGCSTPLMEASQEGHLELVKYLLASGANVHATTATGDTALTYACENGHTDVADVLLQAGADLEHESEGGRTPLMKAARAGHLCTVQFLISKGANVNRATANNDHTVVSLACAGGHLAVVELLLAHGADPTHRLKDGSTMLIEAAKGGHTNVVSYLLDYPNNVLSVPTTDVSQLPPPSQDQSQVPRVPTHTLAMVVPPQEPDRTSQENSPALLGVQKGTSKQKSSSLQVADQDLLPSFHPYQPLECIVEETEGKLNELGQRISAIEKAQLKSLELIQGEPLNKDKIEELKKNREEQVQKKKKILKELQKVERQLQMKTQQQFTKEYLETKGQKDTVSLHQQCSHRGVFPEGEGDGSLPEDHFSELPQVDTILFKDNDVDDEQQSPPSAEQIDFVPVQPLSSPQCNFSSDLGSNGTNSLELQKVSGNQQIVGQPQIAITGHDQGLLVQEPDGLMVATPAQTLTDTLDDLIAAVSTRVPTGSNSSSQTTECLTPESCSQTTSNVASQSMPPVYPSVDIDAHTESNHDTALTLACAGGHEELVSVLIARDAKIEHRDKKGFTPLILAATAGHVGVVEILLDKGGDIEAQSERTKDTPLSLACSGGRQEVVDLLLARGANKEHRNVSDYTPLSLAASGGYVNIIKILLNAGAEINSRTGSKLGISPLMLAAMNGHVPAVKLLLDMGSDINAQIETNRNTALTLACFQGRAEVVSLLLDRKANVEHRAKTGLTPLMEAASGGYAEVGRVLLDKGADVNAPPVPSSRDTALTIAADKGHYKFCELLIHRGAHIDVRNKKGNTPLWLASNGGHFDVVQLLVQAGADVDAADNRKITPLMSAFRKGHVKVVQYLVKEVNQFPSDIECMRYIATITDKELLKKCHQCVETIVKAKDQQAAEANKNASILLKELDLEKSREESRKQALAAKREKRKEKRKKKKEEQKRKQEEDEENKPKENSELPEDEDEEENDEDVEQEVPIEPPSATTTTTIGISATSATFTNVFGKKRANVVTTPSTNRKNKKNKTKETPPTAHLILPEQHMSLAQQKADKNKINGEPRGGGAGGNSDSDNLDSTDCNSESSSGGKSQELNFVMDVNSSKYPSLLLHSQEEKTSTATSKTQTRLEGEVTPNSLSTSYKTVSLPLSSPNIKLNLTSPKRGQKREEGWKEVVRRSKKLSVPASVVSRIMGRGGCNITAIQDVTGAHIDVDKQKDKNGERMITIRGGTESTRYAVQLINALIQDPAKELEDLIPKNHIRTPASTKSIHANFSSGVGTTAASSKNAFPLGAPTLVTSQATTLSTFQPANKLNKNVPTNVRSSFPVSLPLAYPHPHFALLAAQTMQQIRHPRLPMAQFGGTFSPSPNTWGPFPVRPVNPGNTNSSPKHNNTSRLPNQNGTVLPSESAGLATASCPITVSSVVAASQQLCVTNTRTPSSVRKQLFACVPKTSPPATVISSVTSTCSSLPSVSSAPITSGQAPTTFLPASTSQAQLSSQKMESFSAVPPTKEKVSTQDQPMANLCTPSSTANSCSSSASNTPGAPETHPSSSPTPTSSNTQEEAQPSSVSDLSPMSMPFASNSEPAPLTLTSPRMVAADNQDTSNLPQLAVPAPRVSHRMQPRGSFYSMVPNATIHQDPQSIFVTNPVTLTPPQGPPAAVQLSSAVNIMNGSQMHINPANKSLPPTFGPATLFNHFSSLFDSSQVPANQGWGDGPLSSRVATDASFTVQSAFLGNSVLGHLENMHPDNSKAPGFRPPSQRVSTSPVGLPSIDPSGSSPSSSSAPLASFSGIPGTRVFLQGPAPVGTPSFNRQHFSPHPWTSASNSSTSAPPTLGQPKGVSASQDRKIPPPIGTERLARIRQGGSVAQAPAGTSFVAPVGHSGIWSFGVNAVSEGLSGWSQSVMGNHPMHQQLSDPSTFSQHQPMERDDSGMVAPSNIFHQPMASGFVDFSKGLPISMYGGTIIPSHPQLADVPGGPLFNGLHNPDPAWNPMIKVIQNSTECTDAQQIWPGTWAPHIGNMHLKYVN
UniProt Q8N8A2: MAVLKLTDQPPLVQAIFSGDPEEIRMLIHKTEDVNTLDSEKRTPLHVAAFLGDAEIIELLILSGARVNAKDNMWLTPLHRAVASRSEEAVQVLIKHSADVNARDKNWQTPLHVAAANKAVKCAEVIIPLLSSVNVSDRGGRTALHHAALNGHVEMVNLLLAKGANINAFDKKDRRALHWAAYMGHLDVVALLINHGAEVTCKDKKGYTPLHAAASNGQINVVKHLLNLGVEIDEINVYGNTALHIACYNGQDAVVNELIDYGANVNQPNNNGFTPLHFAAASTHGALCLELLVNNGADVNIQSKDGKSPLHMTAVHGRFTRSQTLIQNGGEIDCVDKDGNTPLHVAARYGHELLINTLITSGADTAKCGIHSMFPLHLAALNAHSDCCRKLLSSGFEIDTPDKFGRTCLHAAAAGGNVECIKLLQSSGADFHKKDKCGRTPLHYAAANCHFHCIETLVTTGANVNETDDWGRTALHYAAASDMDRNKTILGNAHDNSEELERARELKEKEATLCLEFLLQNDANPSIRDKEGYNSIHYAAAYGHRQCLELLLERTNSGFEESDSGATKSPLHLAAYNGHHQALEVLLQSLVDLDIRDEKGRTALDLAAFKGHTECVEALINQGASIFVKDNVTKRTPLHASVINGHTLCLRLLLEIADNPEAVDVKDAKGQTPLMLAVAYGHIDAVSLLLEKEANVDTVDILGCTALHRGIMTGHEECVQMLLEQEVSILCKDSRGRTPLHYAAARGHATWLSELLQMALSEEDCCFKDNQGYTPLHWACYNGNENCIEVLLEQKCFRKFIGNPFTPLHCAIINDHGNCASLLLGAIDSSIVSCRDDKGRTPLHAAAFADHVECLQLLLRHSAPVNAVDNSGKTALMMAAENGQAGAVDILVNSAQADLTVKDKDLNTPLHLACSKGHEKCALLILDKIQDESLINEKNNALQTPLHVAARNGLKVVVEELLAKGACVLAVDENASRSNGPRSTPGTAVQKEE
UniProt Q9HCJ1: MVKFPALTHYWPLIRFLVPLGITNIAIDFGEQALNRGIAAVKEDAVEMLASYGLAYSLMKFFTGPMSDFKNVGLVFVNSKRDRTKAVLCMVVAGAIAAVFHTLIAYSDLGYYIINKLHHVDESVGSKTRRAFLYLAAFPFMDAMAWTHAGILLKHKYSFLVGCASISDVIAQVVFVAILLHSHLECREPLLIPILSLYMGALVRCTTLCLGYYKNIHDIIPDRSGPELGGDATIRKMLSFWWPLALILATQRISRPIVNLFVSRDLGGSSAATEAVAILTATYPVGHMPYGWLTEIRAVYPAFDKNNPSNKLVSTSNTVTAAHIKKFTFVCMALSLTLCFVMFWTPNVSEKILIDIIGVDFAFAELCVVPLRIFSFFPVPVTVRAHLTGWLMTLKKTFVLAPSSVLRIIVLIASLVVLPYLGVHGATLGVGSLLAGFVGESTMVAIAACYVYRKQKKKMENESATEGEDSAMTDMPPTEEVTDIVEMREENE
UniProt Q96PC3: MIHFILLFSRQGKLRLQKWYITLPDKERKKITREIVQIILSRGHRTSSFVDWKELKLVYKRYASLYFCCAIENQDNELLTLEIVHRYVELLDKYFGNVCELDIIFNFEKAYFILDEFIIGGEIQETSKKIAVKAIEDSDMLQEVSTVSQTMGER

What was measured:
Test in all cases: log2 fold change, soluble protein after heating vs DMSO (PISA); higher = thermal stabilisation; K562 lysate, 10 uM; active = over 0.2 and 3.5 SD of the protein, either way, in both replicates (recomputed)
nilotinib = compound: Cc1cn(-c2cc(NC(=O)c3ccc(C)c(Nc4nccc(-c5cccnc5)n4)c3)cc(C(F)(F)F)c2)cn1 [nilotinib]
How it was run: (§1)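 Values give the log-two fold change in thermal stability against solvent controls, from duplicates. Crude K562 extract at 1 mg/mL protein, made by dounce homogenisation in PBS pH 7.4 with 1 mM MgCl2, was treated with 10 μM compound for 30 min. After 3 min heating across 48°C-58°C, aliquots were pooled, adjusted to 0.5% NP-40 at 4°C and centrifuged at 21,000xg for 90 min. The supernatant was measured by TMTpro 16plex LC-MS/MS with channel sums equalised.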

[1] = compound: Cc1nc(Nc2n[nH]c3c2CN(C(=O)N[C@H](CN(C)C)c2ccccc2)C3(C)C)c2sccc2n1
How it was run: as §1

dasatinib = compound: Cc1nc(Nc2ncc(C(=O)Nc3c(C)cccc3Cl)s2)cc(N2CCN(CCO)CC2)n1 [dasatinib]
How it was run: as §1

[2] = compound: Cc1ncc(-c2ccnc(Nc3ccc(S(C)(=O)=O)cc3)n2)n1C(C)C
How it was run: as §1

[3] = compound: Cn1cc(-c2ccc3c(c2)CCN3C(=O)Cc2cccc(C(F)(F)F)c2)c2c(N)ncnc21
How it was run: as §1

quisinostat = compound: Cn1cc(CNCC2CCN(c3ncc(C(=O)NO)cn3)CC2)c2ccccc21 [quisinostat]
How it was run: as §1

tipifarnib = compound: Cn1cncc1[C@@](N)(c1ccc(Cl)cc1)c1ccc2c(c1)c(-c1cccc(Cl)c1)cc(=O)n2C [tipifarnib]
How it was run: as §1

[4] = compound: NC(=O)Nc1cc(-c2cccc(F)c2)sc1C(=O)N[C@H]1CCCNC1
How it was run: as §1

[5] = compound: NC(=O)c1cnc(N[C@@H]2CCCC[C@@H]2N)nc1Nc1cccc(-n2nccn2)c1
How it was run: as §1

[6] = compound: NC1(c2ccc(-c3nc4ccn5c(=O)[nH]nc5c4cc3-c3ccccc3)cc2)CCC1
How it was run: as §1

[7] = compound: NCC(=O)Nc1ccc(-n2nc(C(F)(F)F)cc2-c2ccc3c(ccc4ccccc43)c2)cc1
How it was run: as §1

vorinostat = compound: O=C(CCCCCCC(=O)Nc1ccccc1)NO [vorinostat]
How it was run: as §1

silmitasertib = compound: O=C(O)c1ccc2c(c1)nc(Nc1cccc(Cl)c1)c1ccncc12 [silmitasertib]
How it was run: as §1

[8] = compound: O=C1NC(=O)C(c2cnc3ccccn23)=C1c1cn2c3c(cc(F)cc13)CN(C(=O)N1CCCCC1)CC2
How it was run: as §1

entospletinib = compound: c1cn2cc(-c3ccc4cn[nH]c4c3)nc(Nc3ccc(N4CCOCC4)cc3)c2n1 [entospletinib]
How it was run: as §1

Target	log2 fold change (nilotinib)	log2 fold change [1]	log2 fold change (dasatinib)	log2 fold change [2]	log2 fold change [3]	log2 fold change (quisinostat)	log2 fold change (tipifarnib)	log2 fold change [4]	log2 fold change [5]	log2 fold change [6]	log2 fold change [7]	log2 fold change (vorinostat)	log2 fold change (silmitasertib)	log2 fold change [8]	log2 fold change (entospletinib)
AMDHD2 isoform 3 (UniProt Q9Y303)	inactive: 0.011	inactive: -0.076	inactive: -0.043	inactive: -0.027	inactive: 0.026	inactive: 0.035	inactive: 0.01	inactive: -0.011	inactive: -0.022	inactive: 0.002	inactive: 0.038	inactive: 0.088	inactive: -0.004	inactive: -0.002	inactive: 0.056
ANAPC4 isoform 3 (UniProt Q9UJX5)	inactive: 0.005	inactive: 0.004	inactive: -0.065	inactive: -0.018	inactive: 0.026	inactive: -0.052	inactive: -0.024	inactive: 0.002	inactive: -0.012	inactive: -0.039	inactive: -0.022	inactive: -0.038	inactive: -0.006	inactive: -0.026	inactive: 0.014
AMMECR1 (UniProt Q9Y4X0)	inactive: -0.005	inactive: -0.025	inactive: -0.037	inactive: 0.017	inactive: 0.035	inactive: -0.054	inactive: 0.022	inactive: 0.021	inactive: 0.007	inactive: -0.024	inactive: 0.004	active: -0.387	inactive: 0.003	inactive: -0.016	inactive: 0
ANXA1 (UniProt P04083)	inactive: -0.01	inactive: -0.009	inactive: -0.009	inactive: -0.006	inactive: -0.006	inactive: 0.034	inactive: 0.026	inactive: -0.015	inactive: 0.003	inactive: 0.009	inactive: -0.013	active: -0.255	inactive: -0.007	inactive: -0.031	inactive: 0.011
ALKBH7 (UniProt Q9BT30)	inactive: -0.039	inactive: -0.04	inactive: -0.017	inactive: -0.452	inactive: -0.226	inactive: 0.006	inactive: 0.107	inactive: 0.044		inactive: -0.099		active: 1.23	inactive: -0.031	inactive: 0.079	inactive: 0.151
AP1S2 (UniProt P56377)	inactive: -0.089	inactive: 0.077		inactive: -0.28		inactive: -0.094	inactive: -0.148	inactive: 0.086	inactive: 0.056	inactive: 0.114	inactive: 0.046	inactive: 0.061	inactive: -0.078	inactive: -0.133	inactive: -0.034
ANKS6 isoform 4 (UniProt Q68DC2)	inactive: -0.202	inactive: -0.057	inactive: 0.025	inactive: 0.083	inactive: -0.006	inactive: 0.015	inactive: -0.161	inactive: -0.063		inactive: -0.165		inactive: 0.109	inactive: -0.031	inactive: 0.104	inactive: -0.095
AMFR (UniProt Q9UKV5)	inactive: -0.068	inactive: -0.229	inactive: -0.154	inactive: 0.132	inactive: 0.014	inactive: -0.026	inactive: -0.101	inactive: 0.044		inactive: -0.164	inactive: -0.01	inactive: 0.21	inactive: 0.058	inactive: 0.001	inactive: -0.025
AP4M1 (UniProt O00189)	inactive: -0.013	inactive: 0.009	inactive: -0.027	inactive: 0.001	inactive: -0.066	inactive: -0.112	inactive: 0.084	inactive: 0.012		inactive: 0.023	inactive: 0.054	inactive: -0.061	inactive: -0.02	inactive: 0.005	inactive: 0.092
ANKHD1 isoform 2 (UniProt Q8IWZ3)	inactive: -0.015	inactive: 0.038	inactive: -0.027	inactive: -0.035	inactive: 0.119	inactive: -0.007	inactive: -0.047	inactive: 0.037		inactive: -0.188		inactive: -0.03	inactive: -0.107	inactive: -0.039	inactive: -0.022
AKT1S1 (UniProt M0R2V8)	inactive: 0.068	inactive: 0.1		inactive: 0.145			inactive: 0.169		inactive: 0.041						
ALKBH6 isoform 2 (UniProt Q3KRA9)	inactive: -0.015	inactive: -0.096	inactive: -0.102	inactive: 0.012	inactive: 0.016	inactive: 0.04	inactive: 0.068	inactive: -0.126		inactive: 0.055	inactive: 0.007	inactive: -0.087	inactive: -0.024	inactive: 0.006	inactive: 0.031
ANKRD44 isoform 2 (UniProt Q8N8A2)	inactive: -0.19	inactive: -0.03		inactive: -0.216			inactive: 0		inactive: -0.019	inactive: 0.025	inactive: 0.127	inactive: 0.073	inactive: 0.005		inactive: -0.115
ANKH (UniProt Q9HCJ1)	inactive: -0.145	inactive: 0.064		inactive: -0.209		inactive: -0.091	inactive: 0.04	inactive: 0.002	inactive: 0.046	inactive: 0.038	inactive: -0.063	inactive: 0.082	inactive: -0.007	inactive: 0.013	inactive: -0.21
ANKLE2 (UniProt Q86XL3)	inactive: -0.035	inactive: 0.01	inactive: -0.081	inactive: 0.068	inactive: -0.003	inactive: -0.068	inactive: 0.046	inactive: 0.04		inactive: 0.004	inactive: 0.029	inactive: -0.047	inactive: -0.023	inactive: -0.085	inactive: -0.066
AP1S3 isoform 4 (UniProt Q96PC3)	inactive: 0.082	inactive: -0.146	inactive: 0.027	inactive: -0.007	inactive: 0.102		inactive: -0.028		inactive: 0.103	inactive: 0.129		inactive: 0.045	inactive: 0.116		
ANKRD39 (UniProt Q53RE8)	inactive: 0.03	inactive: 0.035	inactive: -0.151	inactive: -0.066	inactive: 0.081	inactive: -0.015	inactive: -0.002	inactive: -0.005						inactive: 0.129	
AMOT (UniProt Q4VCS5)	inactive: 0.056	inactive: -0.027	inactive: -0.06	inactive: 0.045	inactive: 0.176	inactive: -0.004	inactive: 0	inactive: -0.015						inactive: 0.003	inactive: 0.032
ANKRD30A (UniProt Q9BXX3)	inactive: -0.008	inactive: -0.012	inactive: 0.006	inactive: -0.039	inactive: -0.017	inactive: 0.179	inactive: 0.15	inactive: 0.047	inactive: 0.807					inactive: -0.011	inactive: -0.135
ALG13 isoform 2 (UniProt Q9NP73)	inactive: 0.142	inactive: -0.082		inactive: -0.066			inactive: 0.371								
ALOX12B (UniProt O75342)	inactive: 0.088	inactive: -0.186		inactive: -0.136		inactive: 0.158	inactive: -0.018	inactive: 0.047		inactive: -0.071		inactive: 0.187	inactive: -0.052	inactive: 0.003	
ALDH3A2 isoform 2 (UniProt P51648)	inactive: -0.263	inactive: -0.033	inactive: 0.839	inactive: 0.122	inactive: -0.647		inactive: 0.003								
ANKRD26 (UniProt Q9UPS8)	inactive: -0.053	inactive: 0.265		inactive: 0.106		inactive: -0.128	inactive: -0.054	inactive: 0.347	inactive: 0.124	inactive: -0.039	inactive: -0.04	inactive: -0.209	inactive: -0.052	inactive: -0.059	inactive: -0.151
AP3D1 isoform 2 (UniProt O14617)	inactive: -0.287	inactive: 0.035		inactive: 0.376			inactive: -0.132		inactive: 0.034	inactive: -0.121	inactive: 0.179	active: -0.738	inactive: 0.02		
ANKRD16 (UniProt Q6P6B7)	inactive: 0.073	inactive: -0.038	inactive: -0.028	inactive: -0.011	inactive: -0.02	inactive: -0.141	inactive: 0.2	inactive: 0.054	inactive: -0.371					inactive: -0.071	inactive: -0.045
AP1AR (UniProt Q63HQ0)	inactive: -0.105	inactive: 0.027		inactive: -0.034		inactive: -0.078	inactive: -0.047	inactive: -0.027	inactive: 0.013	inactive: -0.004	inactive: 0.013	inactive: -0.018	inactive: 0.086	inactive: -0.011	inactive: -0.036

In a second layout: results already given.
Target | log2 fold change (nilotinib) | log2 fold change [1] | log2 fold change (dasatinib) | log2 fold change [2] | log2 fold change [3] | log2 fold change (quisinostat) | log2 fold change (tipifarnib) | log2 fold change [4] | log2 fold change [5] | log2 fold change [6] | log2 fold change [7] | log2 fold change (vorinostat) | log2 fold change (silmitasertib) | log2 fold change [8] | log2 fold change (entospletinib)
ANXA1 (UniProt P04083) | inactive: -0.01 | inactive: -0.009 | inactive: -0.009 | inactive: -0.006 | inactive: -0.006 | inactive: 0.034 | inactive: 0.026 | inactive: -0.015 | inactive: 0.003 | inactive: 0.009 | inactive: -0.013 | active: -0.255 | inactive: -0.007 | inactive: -0.031 | inactive: 0.011
ALKBH7 (UniProt Q9BT30) | inactive: -0.039 | inactive: -0.04 | inactive: -0.017 | inactive: -0.452 | inactive: -0.226 | inactive: 0.006 | inactive: 0.107 | inactive: 0.044 |  | inactive: -0.099 |  | active: 1.23 | inactive: -0.031 | inactive: 0.079 | inactive: 0.151
